# In the supplement of paper PMC10973195:
# ± gives the standard deviation of the averaged measurements. This is one part of the list. These are raw signals, not scaled to a control.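 The test system is a mixed culture of neurons, microglia and astrocytes in which bacterial LPS triggers microglia-driven neuron loss, modelling inflammatory neurodegeneration. Each compound was compared with vehicle (DMSO) wells on the same plates, and the SYK inhibitor BAY61-3606 served as the reference neuroprotective control.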
# Legend:
# Conditions in all cases: 1 µM, treatment time 3 days
# [1] = test system: rat primary cerebellar neuron-glia coculture; test: microglia count (IB4+) per image field (cells per field); higher = more microglia
# [2] = test system: rat primary cerebellar neuron-glia coculture; test: necrotic cell count (DRAQ7+) per image field (cells per field); higher = more necrosis
# [3] = test system: rat primary cerebellar neuron-glia coculture; test: live neuron count (NeuO+) per image field (cells per field); higher = more surviving neurons
# [4] = test system: rat primary cerebellar neuron-glia coculture; test: median microglial FormFactor (circularity) per image (dimensionless (0-1)); higher = rounder, more ameboid microglia
SMILES,microglia count ([1]; LPS 0 ng/mL),microglia count ([1]; LPS 100 ng/mL),necrotic cell count ([2]; LPS 0 ng/mL),necrotic cell count ([2]; LPS 100 ng/mL),live neuron count ([3]; LPS 0 ng/mL),live neuron count ([3]; LPS 100 ng/mL),median microglial FormFactor ([4]; LPS 0 ng/mL),median microglial FormFactor ([4]; LPS 100 ng/mL)
COc1ccc(-c2cc3nccn3c(Nc3ncccc3C(N)=O)n2)cc1OC,98.4 ± 51,348 ± 75,285 ± 91,161 ± 120,3120 ± 420,3560 ± 490,0.567 ± 0.066,0.541 ± 0.096
Cn1/c(=N/NC(=O)C23CC4CC(CC(C4)C2)C3)sc2ccccc21,174 ± 73,437 ± 70,88.3 ± 30,918 ± 340,2440 ± 740,386 ± 420,0.466 ± 0.1,0.676 ± 0.063
Cn1nc(-c2ccccn2)nc2c(=O)n(C)c(=O)nc1-2,175 ± 33,466 ± 140,83.6 ± 35,916 ± 300,2490 ± 410,158 ± 210,0.504 ± 0.071,0.663 ± 0.053
COc1cc2ncnc(Nc3ccc(Oc4ccccc4)cc3)c2cc1OC,168 ± 27,441 ± 100,74.5 ± 30,727 ± 210,2610 ± 480,486 ± 470,0.552 ± 0.071,0.604 ± 0.14
Cc1nc(NC(=O)N2CCC[C@H]2C(N)=O)sc1-c1ccnc(C(C)(C)C(F)(F)F)c1,125 ± 33,391 ± 78,264 ± 87,982 ± 480,2090 ± 340,481 ± 400,0.495 ± 0.057,0.683 ± 0.089
COc1ccc([C@@H]2Sc3ccccc3N(CCN(C)C)C(=O)[C@@H]2OC(C)=O)cc1,160 ± 32,462 ± 67,80.5 ± 28,987 ± 380,2550 ± 490,443 ± 510,0.589 ± 0.09,0.644 ± 0.059
COc1cc2c(N3CCN(C(=O)Nc4ccc(OC(C)C)cc4)CC3)ncnc2cc1OCCCN1CCCCC1,146 ± 67,411 ± 66,119 ± 31,967 ± 260,2770 ± 460,566 ± 870,0.51 ± 0.076,0.647 ± 0.076
Clc1ccc(CNc2nccc(-c3ccc4[nH]ncc4c3)n2)cc1Cl,167 ± 38,434 ± 90,93.2 ± 42,1040 ± 320,2740 ± 540,353 ± 220,0.554 ± 0.12,0.657 ± 0.045
CCOC(=O)c1ccc(NC(=O)CSc2nc3c(c(=O)n2-c2ccccc2)SCC3)cc1,168 ± 57,404 ± 110,86.2 ± 43,1110 ± 280,2650 ± 520,288 ± 170,0.519 ± 0.089,0.681 ± 0.058
CNc1nc(NCc2ccc(NS(C)(=O)=O)cc2Cl)cc(-c2ccccn2)n1,207 ± 71,442 ± 86,66.8 ± 21,939 ± 580,2610 ± 590,684 ± 550,0.535 ± 0.06,0.635 ± 0.093
CC1(C)C[C@@H](CN2CCC(F)(CNC(=O)c3cc(Cl)cc(Cl)c3)CC2)CCO1,163 ± 28,416 ± 50,85.6 ± 29,967 ± 300,2700 ± 640,432 ± 420,0.536 ± 0.072,0.632 ± 0.066
Oc1ccc(Nc2nc(-c3cccs3)cs2)cc1,141 ± 38,526 ± 300,79.9 ± 30,855 ± 350,2570 ± 490,322 ± 330,0.551 ± 0.068,0.657 ± 0.062
